Experimental data: PubChem BioAssay AID1053208 (Peter MacCallum Cancer Centre, 2014)
Screen: 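Synthetic lethal interactions between gene loss and doxorubicin in osteosarcoma cells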 (primary screen). Cell system: mouse osteosarcoma cells, early-passage culture from an engineered mouse model of fibroblastic bone tumour. Knock-down reagent: siRNA pool against mouse genes, 40 nM. Time to read-out: about 120 h (48 h before drug, then 72 h with drug). Conditions: doxorubicin 100 nM for 72 h, roughly 30-40% inhibitory dose. Read-out: 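Viability read as ATP luminescence after 72 h of 100 nM doxorubicin or none, duplicate wells averaged, scaled to non-targeting siRNA, then expressed as robust z-scores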. Scale: viability z-score with doxorubicin and doxorubicin viability vs non-targeting: higher = more viable cells under doxorubicin; viability z-score without drug: higher = more viable cells with knock-down alone; z-score of drug to no-drug ratio: higher = less drug sensitisation by knock-down. Call rule: 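Called active if knock-down leaves viability unchanged without drug (z within -2 to 2) but lowers it with doxorubicin (z at or under -2)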.
Shown is a random part of about 17,000 reagents. 788 of them (4.7%) count as active. 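Calls rest on z-score classes alone; an extra cut-off of viability at most 70% of control was not applied to them.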 The numbers tell different reagents against one gene apart. No sequences are given here.

The first 5 records, to show the layout:
gene symbol,pool no.,combined z-score class,viability z-score with doxorubicin,viability z-score without drug,z-score of drug to no-drug ratio,doxorubicin viability vs non-targeting,outcome
Rgs5,1,no change with or without drug,-0.9,-0.51,-0.56,0.86,inactive
Gpkow,1,no change with or without drug,0.79,1.18,0.11,1.01,inactive
Elfn2,1,no change with or without drug,-1.01,-0.17,-0.9,0.85,inactive
Ccdc77,1,no change with or without drug,0.67,0.34,0.56,1,inactive
Hoxc10,1,no change with or without drug,-0.22,0.17,-0.22,0.92,inactive

Main list, from the first entry:
gene symbol,pool no.,combined z-score class,viability z-score with doxorubicin,viability z-score without drug,z-score of drug to no-drug ratio,doxorubicin viability vs non-targeting,outcome
Rgs5,1,no change with or without drug,-0.9,-0.51,-0.56,0.86,inactive
Gpkow,1,no change with or without drug,0.79,1.18,0.11,1.01,inactive
Elfn2,1,no change with or without drug,-1.01,-0.17,-0.9,0.85,inactive
Ccdc77,1,no change with or without drug,0.67,0.34,0.56,1,inactive
Hoxc10,1,no change with or without drug,-0.22,0.17,-0.22,0.92,inactive
Camk2a,1,no change with or without drug,0,-0.51,0.45,0.94,inactive
Pitx1,1,no change with or without drug,-0.9,1.52,-1.69,0.86,inactive
Usp47,1,no change with or without drug,-1.69,-0.17,-1.57,0.79,inactive
Usp47,2,no change with or without drug,-0.45,0.34,-0.56,0.9,inactive
Slc30a9,1,no change with or without drug,-0.67,1.18,-1.35,0.88,inactive
Cxcl12,1,no change with or without drug,1.01,-1.18,2.14,1.03,inactive
Nyx,1,no change with or without drug,1.12,1.35,0.34,1.04,inactive
Col8a2,1,no change with or without drug,0.45,1.69,-0.56,0.98,inactive
Srd5a1,1,no change with or without drug,-0.9,0,-0.79,0.86,inactive
Clmn,1,no change with or without drug,-1.35,-0.17,-1.24,0.82,inactive
Ccnb2,1,no change with or without drug,0.11,0.17,0.11,0.95,inactive
S100a11,1,no change with or without drug,0.34,0.34,0.22,0.97,inactive
Bscl2,1,no change with or without drug,-0.22,0.51,-0.45,0.92,inactive
Mttp,1,no change with or without drug,-0.45,-1.69,0.9,0.9,inactive
Acp3,1,no change with or without drug,0,-0.51,0.45,0.94,inactive
Ecel1,1,no change with or without drug,-0.45,-1.52,0.79,0.9,inactive
Cyp4a31,1,no change with or without drug,-0.22,-0.51,0.22,0.92,inactive
Dcps,1,no change with or without drug,1.57,1.18,0.9,1.08,inactive
Spock2,1,no change with or without drug,0,-0.17,0.22,0.94,inactive
Dnah2,1,no change with or without drug,-1.69,-1.52,-0.67,0.79,inactive
Ppp1r9a,1,no change with or without drug,0.9,0.51,0.67,1.02,inactive
Ano9,1,no change with or without drug,0,-0.34,0.34,0.94,inactive
Ces3b,1,no change with or without drug,-0.67,-1.18,0.22,0.88,inactive
Polg,1,no change with or without drug,1.12,0.51,0.9,1.04,inactive
Hibadh,1,no change with or without drug,1.69,1.85,0.56,1.09,inactive
Arhgef3,1,no change with or without drug,-0.45,1.01,-1.01,0.9,inactive
Nlgn2,1,no change with or without drug,-0.45,-0.67,0.11,0.9,inactive
Usp53,1,no change with or without drug,0.11,0.17,0.11,0.95,inactive
Usp53,2,no change with or without drug,0,-0.67,0.56,0.94,inactive
Etv4,1,no change with or without drug,0.9,1.18,0.22,1.02,inactive
Atp2c1,1,no change with or without drug,-0.67,-0.17,-0.45,0.88,inactive
TEX10,1,low cell count with doxorubicin only,-4.16,-0.51,-4.05,0.57,active
Gtf2f2,1,no change with or without drug,0.56,-0.84,1.35,0.99,inactive
Gpr152,1,no change with or without drug,0.79,0.34,0.67,1.01,inactive
Upk3b,1,no change with or without drug,-0.9,0,-0.79,0.86,inactive
Racgap1,1,low cell count without drug only,-1.8,-6.74,4.95,0.78,inactive
Ccnd3,1,no change with or without drug,1.12,0.17,1.12,1.04,inactive
Cdca5,1,no change with or without drug,1.35,0.17,1.35,1.06,inactive
Fgfrl1,1,no change with or without drug,-0.9,0.84,-1.35,0.86,inactive
Pepf,1,no change with or without drug,-1.24,-0.51,-0.9,0.83,inactive
Tff2,1,no change with or without drug,1.69,0.67,1.35,1.09,inactive
Sectm1b,1,no change with or without drug,-0.34,0.51,-0.56,0.91,inactive
Mettl23,1,no change with or without drug,-0.45,0.17,-0.45,0.9,inactive
Angpt2,1,low cell count without drug only,-1.35,-2.19,0.22,0.82,inactive
Tas2r106,1,no change with or without drug,-0.67,-0.51,-0.22,0.88,inactive
